Measurements reported in PubChem BioAssay AID743454 (Peter MacCallum Cancer Centre, 2014).

- Test: 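Search for knock-downs that restore vorinostat killing in resistant colon cancer cells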 (primary screen)
- Cells: human HCT116-VR colon cancer cells, selected for vorinostat resistance
- Knock-down reagent: siRNA pool against human genes, 40 nM siRNA pool
- Time to read-out: vorinostat for 24 h, read-out about 72 h after transfection
- Challenge: vorinostat at 2.5 µM final
- Read-out: 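Two measures, CellTiter-Fluor viability and luminescent caspase 3/7 activity, each as fold change against same-plate mock wells, mean of duplicates, then screen-wide robust z-score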
- Scale: viability robust z-score: higher = more viable cells than screen typical; caspase robust z-score: higher = more caspase 3/7 activity than screen typical
- Active means: 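a knock-down is a hit when classed RV1 or RV2 for lowered viability, or CA1 or CA2 for caspase activation; those lethal without drug were dropped; hits were retested singly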
In all, the deposit lists about 18,000 reagents; below is an unselected part. 450 of all reagents (2.5%) were called active. 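Single biological run; no consistent viability z cut-off exists, so the class columns, not z-scores, define the calls.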 No sequences are given here.

gene | PubChem SID | viability hit class | caspase hit class | viability robust z-score | caspase robust z-score | activity call
MLXIPL | SID135621733 | no change | no change | 0 | -1.04 | inactive
MAJIN | SID135624581 | no change | no change | 0.16 | 0.18 | inactive
FAM161B | SID134320297 | no change | no change | -1.71 | 0.04 | inactive
GCNA | SID152147932 | no change | no change | 1.25 | -0.55 | inactive
CNDP1 | SID152155238 | no change | no change | -0.58 | 1.69 | inactive
OAS3 | SID135621832 | no change | no change | 1.02 | -0.51 | inactive
PTPN7 | SID134313269 | no change | no change | 0.14 | 0.3 | inactive
TRIM51 | SID135621886 | no change | no change | -0.24 | 0.16 | inactive
AIMP1 | SID134316236 | no change | no change | 0.05 | 0.38 | inactive
GUCY2C | SID152148747 | no change | no change | -0.42 | 1.41 | inactive
CYYR1 | SID135622903 | no change | no change | 0.7 | 0.22 | inactive
TLX1NB | SID135625707 | no change | no change | -0.96 | 0.52 | inactive
APC2 | SID152155591 | no change | no change | -0.1 | -0.92 | inactive
C11orf16 | SID152150617 | no change | no change | -1.64 | 1.97 | inactive
OTUD3 | SID152147782 | no change | no change | -0.34 | 0.46 | inactive
FLVCR2 | SID134324742 | no change | no change | -1.03 | -0.48 | inactive
MAFG | SID135621713 | no change | no change | -2.71 | 1.17 | inactive
CELA2B | SID135621087 | no change | no change | 0.02 | 0.18 | inactive
SNX11 | SID135622585 | no change | no change | 0.48 | 2.96 | inactive

No new results follow: an excerpt of the list.
gene | PubChem SID | viability hit class | caspase hit class | viability robust z-score | caspase robust z-score | activity call
MLXIPL | SID135621733 | no change | no change | 0 | -1.04 | inactive
MAJIN | SID135624581 | no change | no change | 0.16 | 0.18 | inactive
FAM161B | SID134320297 | no change | no change | -1.71 | 0.04 | inactive
GCNA | SID152147932 | no change | no change | 1.25 | -0.55 | inactive
CNDP1 | SID152155238 | no change | no change | -0.58 | 1.69 | inactive
OAS3 | SID135621832 | no change | no change | 1.02 | -0.51 | inactive
PTPN7 | SID134313269 | no change | no change | 0.14 | 0.3 | inactive
TRIM51 | SID135621886 | no change | no change | -0.24 | 0.16 | inactive
AIMP1 | SID134316236 | no change | no change | 0.05 | 0.38 | inactive

The listing continues.
gene | PubChem SID | viability hit class | caspase hit class | viability robust z-score | caspase robust z-score | activity call
CCR1 | SID152153480 | no change | no change | -0.06 | -0.66 | inactive
PLA2G15 | SID135621808 | no change | no change | 0.12 | 0.92 | inactive
TSR3 | SID134328725 | no change | no change | -0.08 | 1.82 | inactive
OXT | SID134315543 | no change | no change | 0.44 | -0.72 | inactive
ACVR2A | SID152150723 | no change | no change | 0.04 | -0.38 | inactive
KLHL26 | SID134324031 | no change | no change | -0.12 | 1.92 | inactive
SHC1 | SID135623614 | no change | no change | -1.96 | 0.61 | inactive
MGAT3 | SID152155641 | no change | no change | 1.06 | -0.94 | inactive
SCN4A | SID135621178 | no change | no change | -0.33 | -0.44 | inactive
SLC14A1 | SID152150011 | no change | no change | -0.02 | 0.01 | inactive
RPL23AP82 | SID135625044 | RV2 (reduced viability) | no change | -4.53 | -0.42 | active
KCNK17 | SID135621169 | no change | no change | 0.47 | 1.81 | inactive
CEP164 | SID152151101 | no change | no change | -2.34 | 1.51 | inactive
DDI1 | SID152147968 | no change | no change | -3.58 | 2.03 | inactive
CCDC121 | SID134318536 | no change | no change | -1.25 | 3.38 | inactive
PLBD1 | SID152154048 | no change | no change | -0.92 | 2.96 | inactive
ZNFX1 | SID152154821 | no change | no change | -0.35 | 0.18 | inactive
RBM24 | SID135621839 | no change | no change | -1.23 | 0.26 | inactive
ANGEL1 | SID135622658 | no change | no change | 0.14 | 1.96 | inactive
IGF2-AS | SID152153705 | no change | no change | 0.48 | -0.78 | inactive
IL20RB | SID152152373 | no change | no change | 1.69 | 0.94 | inactive
SPTBN2 | SID135622396 | no change | no change | -0.6 | 3.75 | inactive
HLF | SID152150170 | no change | no change | -0.01 | 0 | inactive
ATP5F1A | SID152156209 | no change | no change | 0.04 | 0.37 | inactive
ARHGAP18 | SID134319164 | no change | no change | -1.94 | 0.02 | inactive
STX1B | SID134319202 | no change | no change | 0.74 | 0 | inactive
KL | SID152153205 | no change | no change | 0.57 | -0.04 | inactive
WNT5A | SID134310179 | no change | no change | -0.18 | 0.29 | inactive
TRIM7 | SID134312200 | no change | no change | 0.4 | -0.08 | inactive
MAGEF1 | SID152153626 | no change | no change | 0.78 | -0.23 | inactive
ZBTB48 | SID134313794 | no change | no change | -0.37 | -0.73 | inactive
ODF1 | SID134315692 | no change | no change | 1.49 | 0.72 | inactive
DPYD | SID152156597 | no change | no change | 0.65 | -0.29 | inactive
OR9Q1 | SID152149012 | no change | no change | 0.16 | 1.69 | inactive
PZP | SID152156568 | no change | no change | 0.05 | 3.05 | inactive
KLHL41 | SID134323828 | no change | no change | 1.02 | -0.84 | inactive
TEX30 | SID134320550 | no change | no change | 1.08 | 0.58 | inactive
LRIT1 | SID152152253 | no change | no change | 1.02 | -0.14 | inactive
